PubChem BioAssay AID1259425 | University of Nebraska Medical Center – 2018
Here is an unselected part of about 14,000 reagents tested. Some reagents were tested in more than one well and are listed for each. Not all columns of the deposit are shown. The record does not give: the time to read-out.

Screen: 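Find knockdowns that reproduce the gene expression pattern seen when KSR1 is lost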 (primary screen)
System: HCT116 human colon cancer cells
Knock-down reagent: siRNA pool against human genes, 50 nM siRNA
Measured: 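After 50 nM siRNA pool, branched-DNA assay measures six marker transcripts per well, minus blank, normalised to the geometric mean of two housekeeping transcripts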
Direction: BNIP3L mRNA: higher = more BNIP3L transcript after knockdown

After knock-down of PPP2R2C (protein phosphatase 2 regulatory subunit Bgamma) the results were BNIP3L mRNA, set 1 = 0.0811.
With knock-down of MEP1A (meprin A subunit alpha) the results were BNIP3L mRNA, set 1 = 0.0838.
After knock-down of PTPRZ1 (protein tyrosine phosphatase receptor type Z1), the record shows BNIP3L mRNA, set 1 = 0.109.
Knock-down of GPR155 (G protein-coupled receptor 155) came out at: BNIP3L mRNA, set 1 = 0.158.
With knock-down of PPP1R13B (protein phosphatase 1 regulatory subunit 13B), the record shows BNIP3L mRNA, set 1 = 0.0603.
Knock-down of HORMAD1 (HORMA domain containing 1) gave: BNIP3L mRNA, set 1 = 0.324.
GLT8D1 (glycosyltransferase 8 domain containing 1) gave BNIP3L mRNA, set 1 = 0.149.
Depletion of KPNA4 (karyopherin subunit alpha 4) resulted in: BNIP3L mRNA, set 1 = 0.0353.
After knock-down of PROCR (protein C receptor), the screen gave BNIP3L mRNA, set 1 = 0.0548.
PABPC4 (poly(A) binding protein cytoplasmic 4) scored BNIP3L mRNA, set 1 = 0.0657.
Against SLC35A2 the deposit lists BNIP3L mRNA, set 1 = 0.215.
After knock-down of GTF2A1L (general transcription factor IIA subunit 1 like) the results were BNIP3L mRNA, set 1 = 0.106.
For FSD1 (fibronectin type III and SPRY domain containing 1) the deposit lists BNIP3L mRNA, set 1 = 0.131.
Knock-down of NMI (N-myc and STAT interactor) came out at: BNIP3L mRNA, set 1 = 0.137.
SYT4 (synaptotagmin 4) scored BNIP3L mRNA, set 1 = 0.0908.
Depletion of PDLIM3 (PDZ and LIM domain 3) gave: BNIP3L mRNA, set 1 = 0.147.
Silencing of PDLIM3 (PDZ and LIM domain 3) came out at: BNIP3L mRNA, set 1 = 0.137.
SEMA4F (ssemaphorin 4F) gave BNIP3L mRNA, set 1 = 0.105.
Silencing of OSBPL10 (oxysterol binding protein like 10) resulted in: BNIP3L mRNA, set 1 = 0.142.

2 entries from above, set out differently:
{"gene": "PDLIM3 (PDZ and LIM domain 3)", "BNIP3L mRNA, set 1": 0.147}
{"gene": "PDLIM3 (PDZ and LIM domain 3)", "BNIP3L mRNA, set 1": 0.137}
